According to patent publication US20260140098A1, “METHOD FOR TREATING PLASMA SAMPLE CONTAINING (7aS,2'S)-2-OXO-CLOPIDOGREL AND METHOD FOR DETERMINING THE SAME” (CHENGDU SHIBEIKANG BIOMEDICAL TECHNOLOGY CO., LTD., priority 2021, published 2026):
Several values for one entry are separate records, joined by “and”; a condition that tells them apart may be missing. Identical values can stand only once. Further values from the same series stand in other lists.

How the values were obtained:
[1] = Stability of (7aS,2′S)-2-oxo-clopidogrel in plasma at −80° C., screening of reducing agent type (Example 5); assay type: in vitro ADME
Procedure: (§1) S2. Plasma sample pre-treatment: taking 100 μl of the plasma, adding 5 μl of an internal standard working solution and 300 μl of acetonitrile respectively; after vortex mixing, centrifuging at 2-8° C. and 10,000 r/min for 10 min, and collecting the supernatant for later use.
(§2) S3. LC-MS/MS analysis: injecting 10 μl of the supernatant prepared from step S2 for determination, where the liquid chromatography conditions are: • the chromatographic column is Kinetex® 1.7 μm C18 100 A 100×2.1 mm; the column temperature is 40° C.; the mobile phase is acetonitrile-0.2% aqueous formic acid solution with a flow rate of 0.2 ml/min; and a gradient elution is carried out as specified in the table below:
(§3) ESI ion source, positive ion detection in multiple reaction monitoring mode (MRM); the quantitatively analyzed ions (7aS,2′S)-2-oxo-clopidogrel: m/z 338.100→155.000, IS: m/z 341.100→158.000, a capillary voltage of 4.0 KV, a cone voltage of 25 V, a desolvation gas temperature of 400° C. and a source temperature of 150° C. The optimal collision energy is 20 eV.
Blank plasma was taken and different antioxidants (DTT, TCEP, ME) were added to prepare plasma containing an antioxidant at a concentration of 100 mg/ml. Subsequently, standard series solution of (7aS,2′S)-2-oxo-clopidogrel was added separately to prepare quality control samples with two concentrations of (7aS,2′S)-2-oxo-clopidogrel (0.1 and 12.0 ng/ml), 3 samples for each concentration. They were placed in a refrigerator at −80° C., and the plasma samples at different placing time points were taken to examine the stability by pre-treating the plasma samples according to the method of S2 of Example 1, followed by LC/MS/MS determination according to the method of S3.

[2] = Stability of (7aS,2′S)-2-oxo-clopidogrel in plasma containing the reducing agent (Example 8); assay type: in vitro ADME, human; settings: plasma with reducing agent; for Measured concentration: single replicates
Procedure: S1. Whole blood treatment: taking 3 ml of human whole blood anticoagulated with EDTA-K2 after oral administration of (7aS,2′S)-2-oxo-clopidogrel, cooling to 4° C. on ice, then adding thereto 60 μl of tris(2-carboxyethyl) phosphine at 100 mg/ml; shaking well and then centrifuging (2-8° C., 3000 rpm for 10 min), and collecting plasma for later use.
as §1, §2, §3
Blank plasma was taken and operated according to S1 of Example 1 to obtain a blank plasma containing the reducing agent. Subsequently, a standard series solution of (7aS,2′S)-2-oxo-clopidogrel was added to prepare quality control samples containing (7aS,2′S)-2-oxo-clopidogrel at concentrations of 0.1 and 12 ng/ml. The plasma samples were examined for stability after ice box short-term placement, stability after room temperature short-term placement, stability after freeze-thaw cycle and stability after long-term cryopreservation.
The plasma samples at different placing time points were taken to examine the stability by pre-treating the plasma samples according to the method of S2 of Example 1, followed by LC/MS/MS determination according to the method of S3.

[3] = placing below −60° C. for 36 days, theoretical 12.0 ng/mL
[4] = placing in ice box for 4 h, theoretical 0.1 ng/mL

Compound: COC(=O)[C@H](c1ccccc1Cl)N1CC[C@@H]2SC(=O)C=C2C1 [(7aS,2′S)-2-oxo-clopidogrel, methyl(S)-2-(2-chlorophenyl)-2-((S)-2-oxo-2,6,7,7a-tetrahydrothieno[3,2-c]pyridin-5 (4H)-yl)acetate]
- Measured value ([1]; DTT 100 mg/ml, theoretical 0.1 ng/mL, day 0): 0.1022 ng/mL
- Measured value ([1]; DTT 100 mg/ml, theoretical 0.1 ng/mL, day 10): 0.1033 ng/mL
- Measured value ([1]; DTT 100 mg/ml, theoretical 0.1 ng/mL, day 30): 0.0955 ng/mL
- Measured value ([1]; DTT 100 mg/ml, theoretical 0.1 ng/mL, day 60): 0.0899 ng/mL
- Measured value ([1]; DTT 100 mg/ml, theoretical 12.0 ng/mL, day 0): 12.1435 ng/mL
- Measured value ([1]; DTT 100 mg/ml, theoretical 12.0 ng/mL, day 10): 12.0024 ng/mL
- Measured value ([1]; DTT 100 mg/ml, theoretical 12.0 ng/mL, day 30): 11.8674 ng/mL
- Measured value ([1]; DTT 100 mg/ml, theoretical 12.0 ng/mL, day 60): 11.0928 ng/mL
- Measured value ([1]; ME 100 mg/ml, theoretical 0.1 ng/mL, day 0): 0.1022 ng/mL
- Measured value ([1]; ME 100 mg/ml, theoretical 0.1 ng/mL, day 10): 0.1006 ng/mL
- Measured value ([1]; ME 100 mg/ml, theoretical 0.1 ng/mL, day 30): 0.0915 ng/mL
- Measured value ([1]; ME 100 mg/ml, theoretical 0.1 ng/mL, day 60): 0.0866 ng/mL
- Measured value ([1]; ME 100 mg/ml, theoretical 12.0 ng/mL, day 0): 12.1435 ng/mL
- Measured value ([1]; ME 100 mg/ml, theoretical 12.0 ng/mL, day 10): 11.9024 ng/mL
- Measured value ([1]; ME 100 mg/ml, theoretical 12.0 ng/mL, day 30): 11.5744 ng/mL
- Measured value ([1]; ME 100 mg/ml, theoretical 12.0 ng/mL, day 60): 10.5488 ng/mL
- Measured value ([1]; TCEP 100 mg/ml, theoretical 0.1 ng/mL, day 0): 0.1022 ng/mL
- Measured value ([1]; TCEP 100 mg/ml, theoretical 0.1 ng/mL, day 10): 0.1053 ng/mL
- Measured value ([1]; TCEP 100 mg/ml, theoretical 0.1 ng/mL, day 30): 0.0993 ng/mL
- Measured value ([1]; TCEP 100 mg/ml, theoretical 0.1 ng/mL, day 60): 0.1008 ng/mL
- Measured value ([1]; TCEP 100 mg/ml, theoretical 12.0 ng/mL, day 0): 12.1435 ng/mL
- Measured value ([1]; TCEP 100 mg/ml, theoretical 12.0 ng/mL, day 10): 12.0566 ng/mL
- Measured value ([1]; TCEP 100 mg/ml, theoretical 12.0 ng/mL, day 30): 12.2674 ng/mL
- Measured value ([1]; TCEP 100 mg/ml, theoretical 12.0 ng/mL, day 60): 12.0928 ng/mL
- Measured concentration ([2]; placing below −60° C. for 36 days, theoretical 0.1 ng/mL): 0.0987 ng/mL and 0.0933 ng/mL
- Average measured concentration [2, 3]: 11.7299 ng/mL
- Measured concentration [2, 3]: 11.6573 ng/mL and 11.9738 ng/mL and 11.7638 ng/mL and 11.8026 ng/mL and 11.4518 ng/mL
- Average measured concentration [2, 4]: 0.1000 ng/mL
- Measured concentration [2, 4]: 0.0993 ng/mL and 0.1020 ng/mL
